According to patent publication US20220213227A1:
Positions count from the first letter of the chain named. Names may count otherwise. Results are given in words; binding and its absence hold for the method and conditions named. Some results given as binding are weak or reduced against the parent protein; the word gives no strength. Tags and fused reporters may be left off the sequences shown. One block for each binder: values may come before it.

Key:
[1] = molecular target: cynomolgus monkey CD3 epsilon 1-26_Fc fusion protein (cynomolgus monkey); experiment: alanine scan of scFv-Fc; binding assay not named there (candidates were assessed by SPR on CD3 epsilon 1-26_Fc)
[2] = molecular target: human CD3 epsilon 1-26_Fc fusion protein (human); experiment: as above

- binding [1]: binds
- binding [2]: binds
B1: SP34 H1L21 scFv-Fc with T29A in VL21 (Fc fusion, name in Kabat numbering)
VH: EVQLVESGGGLVQPGGSLRLSCAASGFTFNTYAMNWVRQAPGKGLEWVARIRSKYNNYATYYADSVKGRFTISRDDSKNTLYLQMNSLRAEDTAVYYCVRHGNFGNSYVSWFAYWGQGTTVTVSS
VL: EIVVTQSPATLSVSPGERATLSCRSSTGAVTASNYANWVQEKPGQAFRGLIGGANKRAPGVPARFSGSLSGDEATLTISSLQSEDFAVYYCALWYSNLWVFGQGTKLEIK

- binding [1]: binds
- binding [2]: binds
B2: SP34 H1L21 scFv-Fc with S30A in VL21 (Fc fusion, name in Kabat numbering)
VH: B1 VH
VL: B1 VL with A32T, S33A
